Reference: PubChem BioAssay AID540276 (National Center for Advancing Translational Sciences (NCATS), 2011)
Hit rate of the full screen: of about 300,000 compounds, about 5,400 (1.8%) were called active. The shares of active, inactive and inconclusive entries below differ from those in the screen. The call rests on the fitted dose curve; tested in HEK293 cells. Potencies of inconclusive entries are doubtful fits and often do not repeat.

experiment: qHTS for inhibitors of binding or entry into cells for Marburg Virus; conditions: Marburg virus pseudotyped entry inhibition, cell reporter; series mostly up to 37.8 µM
Potency means the concentration at half of the fitted maximal effect.

| Compound | Potency |
| --- | --- |
| O=C(CC1Sc2ccc(C(F)(F)F)cc2NC1=O)Nc1ccc(Cl)c(C(F)(F)F)c1 (stereo not drawn) | inactive |
| CC(C)(C)NC(=O)NC(=O)CN1C(=O)NC(c2ccccc2)(c2ccccc2)C1=O | inconclusive: 17.8 µM [inhibitor, single point] |
| Cc1cc(C)c(C#N)c(SCC(=O)Nc2ccccc2)n1 | inconclusive: 2.24 µM [activator, partial curve, poor fit] |
| CCN1CCN(c2cc(C)c3cc(NC(=S)N4CCCC4)ccc3n2)CC1 | inconclusive: 14.1 µM [inhibitor, partial curve, poor fit] |
| Cc1cc(N2CCCC(C(=O)Nc3ccc4c(c3)CCC4)C2)n2ncnc2n1 (stereo not drawn) | inactive |
| COc1ccccc1C(=O)NC(=O)COC(=O)c1nc2nc(C)cc(C)n2n1 | inconclusive: 35.5 µM [activator, single point] |
| O=C(NN=Cc1cc(=O)[nH]c(=O)[nH]1)c1ccncc1 | inactive |
| NC(=S)N/N=C1\CC(c2ccc3c(c2)OCCCO3)Oc2ccc(F)cc21 (stereo not drawn) | inconclusive: 2.51 µM [inhibitor, partial curve, poor fit] |
| Cc1ccccc1N(C(=O)c1ccco1)C(C(=O)NC1CCCC1)c1cccnc1 (stereo not drawn) | inconclusive: 35.5 µM [inhibitor, partial curve, poor fit] |
| COC(=O)C(C(=O)Nc1ccc(OC)cc1)C1CCCCCC1 (stereo not drawn) | inconclusive: 11.2 µM [inhibitor, single point] |
| CCOC(=O)c1cccc(NC(=O)COc2nsnc2N2CCOCC2)c1 | inconclusive: 35.5 µM [inhibitor, partial curve, poor fit] |
| Cc1ccc(Nc2ncnc3c2nnn3Cc2ccccc2)cc1 | inconclusive: 3.16 µM [inhibitor, single point] |
| CCN(Cc1ccccc1)C(=O)c1cc(COc2c(F)cccc2F)on1 | inactive |
| O=C(CSc1ccc(-c2ccco2)nn1)Nc1ccccc1 | inactive |
| CC(C)C(=O)N1CCN(c2nc(-c3ccccc3)c3c(c2C#N)CCCC3)CC1 | inconclusive: 23.1 µM [inhibitor, single point] |
| CCOC(=O)C1CCCN(c2ncnc3c2cnn3-c2ccc(Cl)cc2)C1 (stereo not drawn) | inconclusive: 29.1 µM [inhibitor, single point] |
| Cc1ccc(C)c(NC(=O)CN(C)C(=O)c2ccc(-c3cccc(C(F)(F)F)c3)o2)c1 | inconclusive: 35.5 µM [inhibitor, single point] |
| COC(=O)C(Cc1cccc(C)n1)(c1ccccc1)c1ccccc1 | inconclusive: 35.5 µM [inhibitor, single point] |

Two entries from above, with tabs.
Compound	Potency
O=C(CSc1ccc(-c2ccco2)nn1)Nc1ccccc1	inactive
CC(C)C(=O)N1CCN(c2nc(-c3ccccc3)c3c(c2C#N)CCCC3)CC1	inconclusive: 23.1 µM [inhibitor, single point]
